The supplement of paper PMC10338343
± gives the standard deviation. This is a selection; strong and weak results do not stand in their true shares. The uncertainty is large for many entries.

Each sequence was assayed on MIWI (PIWIL1) piRISC loaded with L1MC piRNA (30 nt) (assay: pre-steady-state target cleavage rate (min^-1); MIWI and MILI are mouse PIWI proteins and EfPiwi is from a freshwater sponge; tags in brackets are library labels; higher = faster piRNA-guided slicing of the target). Settings: guide: L1MC piRNA 5'p-UAACUAAAUACUAUGCAAGCUGUAGGUCCU; auxiliary factor: 500 nM mouse GTSF1.
In short: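 Cleave-'n-Seq used a transcribed, DNA-blocked target RNA library at 0.1 nM and active affinity-purified piRISC with one synthetic guide at 1 nM, with or without 500 nM GTSF1 partner protein, in HEPES–potassium acetate buffer at 33 °C for 0–8 or 0–960 min. Uncleaved targets were sequenced and normalised to depth and to weakly complementary targets, and three trials were pooled with k3 capped at 0.0001 min^-1. The pre-steady-state cleavage rate was estimated by a burst-and-steady-state fit.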

Sequence	pre-steady-state target cleavage rate
UGGACCUACAGCUUGCAAAGUAUUUAGUUA	1.36 ± 0.058
AGGUCGUACAGCUUGCAUAGUAUUUAGUUA	1.44 ± 0.065
UCCUGGAUGUCGAACCAUACUAUAUAGUUA	0.000191 ± 0.029
AGGAGGUACAGCUUGCAUAGUAUUUAGUUA	1.5 ± 0.072
UGGACCUACAGCUUGCAUAUUAUUUAGUUA	1.71 ± 0.12
UCCUGGAUGUCGAACCAUAGUUUUAAGUUA	0.000481 ± 0.015
UGGACCUACAGCUUGCAUAGUAUUUAGUUA [g2:g29:cont:t1A]	1.61 ± 0.09

Same assay, conditions: guide: L1MC piRNA 5'p-UAACUAAAUACUAUGCAAGCUGUAGGUCCU; auxiliary factor: none (no GTSF1)

Sequence	pre-steady-state target cleavage rate
AGGUGCUACAGCUUGCAUAGUAUUUACAAA	0.00252 ± 0.0027
UGGACCUACAGCUUCCAUAGUAUUUAGAAA	0.00091 ± 0.0048
AGGACCUACAGCUACCAUAGUAUUUAGAAA	0.000372 ± 0.0093
UCCACCUACAGCUUGCAAUCUAUUUAGUUA	0.00205 ± 0.0026
UCGACCUACAGCUUCCAUAGUAUUUUGUUA	0.00126 ± 0.0047
UCGACCUACACGUUGCAUAGUAUUUUCAAA	0.000832 ± 0.0083
UCCACCUUGAGCUUGCAUAGUAUUUUCAAA	0.00131 ± 0.0033
UGGACCUACAGCUUGCAUAGUAUUAUGUAA	0.00211 ± 0.0033
UCCACCUAGAGCUUGCAUAGUAUUUUCAAA	0.00179 ± 0.0031
UCCUCCUACAGCUUCCAUAGUAUUUACUUA	0.00107 ± 0.0062
UCGACCUACAGGUUGCAUAGUAUUUUCAAA	0.0013 ± 0.0033
AGGACCUACAGCUUCCAUAGUAUAUAGUUA	0.00131 ± 0.0053
UCGACCUACAGCUACCAUAGUAUUUUCAAA	0.000145 ± 0.018
UCGACCUACAGCUUGGUAAGUAUUUAGAAA	0.000592 ± 0.009
UCCACCUACAGCUUGGUUAGUAUUUACAAA	0.000723 ± 0.0068
UGGACCUACAGCUUGCUAUCAUAAAUCAAA [g15:g29:cont:t1A]	0.00013 ± 0.022
UGGACCUACAGCUUGCAUAGUAUAUUCAAA	0.00143 ± 0.0051

Looked up one by one from the entries so far (2):
Sequence	pre-steady-state target cleavage rate
UCCACCUACAGCUUGCAAUCUAUUUAGUUA	0.00205 ± 0.0026
UGGACCUACAGCUUGCAUAGUAUAUUCAAA	0.00143 ± 0.0051

Further records follow.

Sequence	pre-steady-state target cleavage rate
UCCUGGAUGUCGAACGUAUAUAUUUAGUUA	0.000348 ± 0.017
UGGACCUACAGGUUCCAUAGUAUUUAGUUA	0.00148 ± 0.0045
UCCUGGAUGUCGAACGUUAGUAUUUAAUUA	0.000198 ± 0.025
UCCACCUACAGGUUGCAUAGUAUUUAGAAA	0.0022 ± 0.0024
UCCUGGAUGUCGAACCAUAGUAAAUAGUUA	0.000506 ± 0.011
AGGACCUACAGCUUGCAUACAUUUUAGUAA	0.000893 ± 0.0097
UGGACCUACAGCUUGCAUAGUAUAUAGAAA	0.0022 ± 0.0036
UCCUGGAUGUCGAACGAUAGCAUUUAGUUA	0.000167 ± 0.031
AGGACCUACAGCUUGCAUAGUAAAUAGAAA	0.00111 ± 0.0065
UGGACCUACAGGAUGCAUAGUAUUUACAAA	0.00188 ± 0.0028
UGGACCUACAGCUUCCAAAGUAUUUAGUUA	0.000726 ± 0.0038
UCCACCUACACGAUGCAUAGUAUUUAGUAA	0.00092 ± 0.005
UCCACCUACAGCUUGCAUAGUUAAUACAAA	0.000763 ± 0.0093
UCCACCUACAGCUACCAUAGUAUUUUCAAA	0.000232 ± 0.013
UGGUGCUACAGCUUGCAUAGUAUUUUCAAA	0.00193 ± 0.004
UCCUGGAACAGCUUGCAUAGUAUAAUCAAA [g8:g23:cont:t1A]	0.00229 ± 0.0031
